Some of the results follow.
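Note: competitive chemoproteomic profiling in live THP-1 cells with an iodoacetamide desthiobiotin (IA-DTB) probe, comparing probe-labelled peptide intensities in compound-treated cells against DMSO-treated controls.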

Chains of the proteins cited; added tags and fusions are not shown. Lines headed by an entry give the natural chain unless they say otherwise; changes in a name come on top.
UniProt Q9UGP8: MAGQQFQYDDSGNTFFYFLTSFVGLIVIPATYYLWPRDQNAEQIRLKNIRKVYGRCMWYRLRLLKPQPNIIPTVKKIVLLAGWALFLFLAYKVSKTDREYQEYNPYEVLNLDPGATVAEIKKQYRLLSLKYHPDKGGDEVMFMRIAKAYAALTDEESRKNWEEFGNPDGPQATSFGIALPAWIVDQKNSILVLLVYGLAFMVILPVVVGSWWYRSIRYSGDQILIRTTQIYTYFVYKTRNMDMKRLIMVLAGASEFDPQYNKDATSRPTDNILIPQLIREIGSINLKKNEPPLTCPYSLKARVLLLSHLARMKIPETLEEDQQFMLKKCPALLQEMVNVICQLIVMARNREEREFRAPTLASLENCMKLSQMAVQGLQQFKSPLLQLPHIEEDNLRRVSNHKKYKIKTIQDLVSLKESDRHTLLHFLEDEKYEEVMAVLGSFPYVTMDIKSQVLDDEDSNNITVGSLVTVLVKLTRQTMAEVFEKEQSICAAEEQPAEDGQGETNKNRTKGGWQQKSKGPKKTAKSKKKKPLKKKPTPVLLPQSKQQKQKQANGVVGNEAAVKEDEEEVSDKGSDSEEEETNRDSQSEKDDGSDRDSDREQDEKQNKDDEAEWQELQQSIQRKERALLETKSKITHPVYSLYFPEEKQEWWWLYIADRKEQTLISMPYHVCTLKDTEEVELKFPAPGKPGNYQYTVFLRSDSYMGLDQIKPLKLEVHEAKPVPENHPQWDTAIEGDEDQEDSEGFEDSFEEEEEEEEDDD
UniProt Q15020: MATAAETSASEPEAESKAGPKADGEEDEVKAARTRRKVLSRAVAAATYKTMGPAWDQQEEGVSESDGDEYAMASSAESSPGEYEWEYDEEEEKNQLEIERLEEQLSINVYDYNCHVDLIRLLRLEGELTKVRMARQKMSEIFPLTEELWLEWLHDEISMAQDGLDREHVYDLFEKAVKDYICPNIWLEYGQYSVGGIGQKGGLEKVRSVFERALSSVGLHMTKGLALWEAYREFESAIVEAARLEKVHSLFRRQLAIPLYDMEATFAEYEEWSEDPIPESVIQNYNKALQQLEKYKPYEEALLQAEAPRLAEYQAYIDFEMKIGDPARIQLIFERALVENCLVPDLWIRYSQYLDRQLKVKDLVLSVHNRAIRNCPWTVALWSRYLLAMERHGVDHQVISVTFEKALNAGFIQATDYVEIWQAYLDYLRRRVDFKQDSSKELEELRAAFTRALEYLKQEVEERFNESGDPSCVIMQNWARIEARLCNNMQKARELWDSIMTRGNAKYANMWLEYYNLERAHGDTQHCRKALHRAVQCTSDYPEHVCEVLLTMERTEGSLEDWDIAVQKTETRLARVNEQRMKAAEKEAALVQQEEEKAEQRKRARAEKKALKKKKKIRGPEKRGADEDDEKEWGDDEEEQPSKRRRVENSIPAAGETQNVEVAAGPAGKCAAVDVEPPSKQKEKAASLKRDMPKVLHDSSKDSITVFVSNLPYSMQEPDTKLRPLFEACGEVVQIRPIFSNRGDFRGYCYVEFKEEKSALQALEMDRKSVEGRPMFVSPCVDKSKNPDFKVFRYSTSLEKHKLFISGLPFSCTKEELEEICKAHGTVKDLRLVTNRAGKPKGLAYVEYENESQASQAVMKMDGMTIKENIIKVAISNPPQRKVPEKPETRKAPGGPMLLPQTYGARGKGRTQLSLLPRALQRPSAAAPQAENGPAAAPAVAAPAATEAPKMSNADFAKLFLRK
UniProt Q92503: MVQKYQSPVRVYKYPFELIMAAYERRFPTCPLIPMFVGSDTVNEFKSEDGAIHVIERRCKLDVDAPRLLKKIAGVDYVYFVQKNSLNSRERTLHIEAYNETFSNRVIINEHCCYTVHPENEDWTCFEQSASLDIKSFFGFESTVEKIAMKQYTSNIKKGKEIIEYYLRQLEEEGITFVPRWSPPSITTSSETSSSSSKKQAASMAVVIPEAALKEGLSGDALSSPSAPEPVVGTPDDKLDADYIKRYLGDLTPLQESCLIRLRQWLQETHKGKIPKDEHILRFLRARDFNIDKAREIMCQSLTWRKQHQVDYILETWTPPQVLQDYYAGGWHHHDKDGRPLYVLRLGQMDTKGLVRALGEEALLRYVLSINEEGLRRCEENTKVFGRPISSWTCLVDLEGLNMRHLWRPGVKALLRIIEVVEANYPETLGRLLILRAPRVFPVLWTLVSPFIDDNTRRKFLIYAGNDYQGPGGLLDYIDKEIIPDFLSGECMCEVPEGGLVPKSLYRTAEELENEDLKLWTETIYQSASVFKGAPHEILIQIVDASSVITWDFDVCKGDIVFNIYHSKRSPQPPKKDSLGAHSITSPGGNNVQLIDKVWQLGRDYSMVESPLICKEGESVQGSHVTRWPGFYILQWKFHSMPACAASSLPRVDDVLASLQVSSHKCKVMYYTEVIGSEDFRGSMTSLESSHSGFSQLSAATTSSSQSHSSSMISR
UniProt Q96GA7: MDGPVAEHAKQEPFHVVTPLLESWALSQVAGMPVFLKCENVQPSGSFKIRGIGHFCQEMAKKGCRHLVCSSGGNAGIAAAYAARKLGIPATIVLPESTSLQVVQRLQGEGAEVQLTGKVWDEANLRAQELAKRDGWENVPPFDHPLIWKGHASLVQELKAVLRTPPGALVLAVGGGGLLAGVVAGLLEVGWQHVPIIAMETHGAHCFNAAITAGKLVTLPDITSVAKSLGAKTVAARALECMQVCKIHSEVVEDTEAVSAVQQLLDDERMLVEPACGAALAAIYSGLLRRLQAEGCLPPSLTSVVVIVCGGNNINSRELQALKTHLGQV
UniProt Q15437: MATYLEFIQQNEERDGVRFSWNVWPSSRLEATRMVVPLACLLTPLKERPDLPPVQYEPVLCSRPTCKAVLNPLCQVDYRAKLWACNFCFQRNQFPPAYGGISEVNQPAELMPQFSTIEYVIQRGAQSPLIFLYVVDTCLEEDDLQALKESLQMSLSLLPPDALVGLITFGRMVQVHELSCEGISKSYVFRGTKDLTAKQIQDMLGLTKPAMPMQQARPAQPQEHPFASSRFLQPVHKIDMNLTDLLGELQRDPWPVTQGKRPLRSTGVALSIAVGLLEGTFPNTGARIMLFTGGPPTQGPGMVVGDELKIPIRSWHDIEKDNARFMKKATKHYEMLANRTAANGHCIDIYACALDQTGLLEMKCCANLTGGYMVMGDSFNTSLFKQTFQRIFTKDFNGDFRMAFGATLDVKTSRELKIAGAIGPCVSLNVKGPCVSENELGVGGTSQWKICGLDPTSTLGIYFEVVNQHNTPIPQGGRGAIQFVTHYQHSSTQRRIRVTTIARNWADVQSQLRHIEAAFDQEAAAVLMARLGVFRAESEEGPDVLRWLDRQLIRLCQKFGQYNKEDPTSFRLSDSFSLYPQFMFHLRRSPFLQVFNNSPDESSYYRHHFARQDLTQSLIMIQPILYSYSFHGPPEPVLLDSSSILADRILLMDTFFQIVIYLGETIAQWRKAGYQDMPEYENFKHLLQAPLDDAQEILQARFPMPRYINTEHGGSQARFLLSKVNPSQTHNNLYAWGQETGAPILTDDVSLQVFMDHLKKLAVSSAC
UniProt P21912: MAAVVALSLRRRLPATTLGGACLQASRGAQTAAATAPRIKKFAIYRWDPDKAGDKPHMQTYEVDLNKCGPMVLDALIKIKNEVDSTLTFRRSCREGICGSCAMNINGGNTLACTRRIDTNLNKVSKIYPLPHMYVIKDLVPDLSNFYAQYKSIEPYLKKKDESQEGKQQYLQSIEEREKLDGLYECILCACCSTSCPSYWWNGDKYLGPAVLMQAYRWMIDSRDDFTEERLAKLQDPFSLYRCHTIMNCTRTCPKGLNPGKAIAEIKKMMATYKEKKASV
UniProt Q99590: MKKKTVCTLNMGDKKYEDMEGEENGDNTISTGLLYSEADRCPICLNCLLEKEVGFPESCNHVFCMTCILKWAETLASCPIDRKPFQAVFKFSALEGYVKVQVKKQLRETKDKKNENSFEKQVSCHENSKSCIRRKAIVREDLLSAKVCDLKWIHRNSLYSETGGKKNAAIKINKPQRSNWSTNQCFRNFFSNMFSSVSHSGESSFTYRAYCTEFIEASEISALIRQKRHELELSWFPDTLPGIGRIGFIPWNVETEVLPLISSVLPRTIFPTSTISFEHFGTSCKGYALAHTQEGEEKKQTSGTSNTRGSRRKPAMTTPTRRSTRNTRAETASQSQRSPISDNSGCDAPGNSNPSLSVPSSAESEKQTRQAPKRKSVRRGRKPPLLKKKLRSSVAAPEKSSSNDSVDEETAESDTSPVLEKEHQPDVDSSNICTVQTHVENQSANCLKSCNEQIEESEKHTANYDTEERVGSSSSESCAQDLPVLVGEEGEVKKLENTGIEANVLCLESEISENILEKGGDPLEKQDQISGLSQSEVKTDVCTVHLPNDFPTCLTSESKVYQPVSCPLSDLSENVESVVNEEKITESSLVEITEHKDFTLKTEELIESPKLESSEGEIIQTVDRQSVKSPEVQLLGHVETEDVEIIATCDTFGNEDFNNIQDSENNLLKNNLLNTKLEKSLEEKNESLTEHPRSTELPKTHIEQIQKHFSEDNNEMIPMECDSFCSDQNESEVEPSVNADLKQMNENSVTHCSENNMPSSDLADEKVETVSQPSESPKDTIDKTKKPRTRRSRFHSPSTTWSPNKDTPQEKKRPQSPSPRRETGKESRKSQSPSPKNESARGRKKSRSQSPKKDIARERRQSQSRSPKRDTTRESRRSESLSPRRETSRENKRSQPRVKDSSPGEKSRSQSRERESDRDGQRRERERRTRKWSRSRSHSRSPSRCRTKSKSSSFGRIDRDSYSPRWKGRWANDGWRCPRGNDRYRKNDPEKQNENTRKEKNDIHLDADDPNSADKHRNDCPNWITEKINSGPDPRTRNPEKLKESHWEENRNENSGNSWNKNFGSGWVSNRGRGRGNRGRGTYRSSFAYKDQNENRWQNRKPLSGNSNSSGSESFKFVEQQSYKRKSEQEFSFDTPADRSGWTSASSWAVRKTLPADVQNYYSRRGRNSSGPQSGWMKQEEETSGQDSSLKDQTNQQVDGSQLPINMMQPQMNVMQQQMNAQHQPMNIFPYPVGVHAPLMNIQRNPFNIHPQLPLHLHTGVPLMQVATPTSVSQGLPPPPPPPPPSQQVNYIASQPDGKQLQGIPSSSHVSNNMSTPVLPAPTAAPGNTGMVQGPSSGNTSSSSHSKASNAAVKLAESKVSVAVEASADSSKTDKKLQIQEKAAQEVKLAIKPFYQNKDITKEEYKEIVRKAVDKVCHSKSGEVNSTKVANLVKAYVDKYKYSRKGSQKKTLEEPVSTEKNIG
UniProt Q9Y6B6: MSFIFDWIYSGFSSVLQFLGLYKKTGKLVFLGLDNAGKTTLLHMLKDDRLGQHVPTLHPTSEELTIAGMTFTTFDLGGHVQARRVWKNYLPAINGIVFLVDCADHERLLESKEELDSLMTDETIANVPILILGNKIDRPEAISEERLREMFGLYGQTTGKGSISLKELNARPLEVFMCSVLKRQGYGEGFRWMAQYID
UniProt Q9HCN8: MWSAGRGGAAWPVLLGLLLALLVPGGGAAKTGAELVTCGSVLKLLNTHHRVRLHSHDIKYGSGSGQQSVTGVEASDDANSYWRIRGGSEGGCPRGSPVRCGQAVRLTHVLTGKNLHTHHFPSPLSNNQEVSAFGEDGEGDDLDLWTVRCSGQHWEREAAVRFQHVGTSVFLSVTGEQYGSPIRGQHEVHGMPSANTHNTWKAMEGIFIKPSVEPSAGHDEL
UniProt Q8WU76: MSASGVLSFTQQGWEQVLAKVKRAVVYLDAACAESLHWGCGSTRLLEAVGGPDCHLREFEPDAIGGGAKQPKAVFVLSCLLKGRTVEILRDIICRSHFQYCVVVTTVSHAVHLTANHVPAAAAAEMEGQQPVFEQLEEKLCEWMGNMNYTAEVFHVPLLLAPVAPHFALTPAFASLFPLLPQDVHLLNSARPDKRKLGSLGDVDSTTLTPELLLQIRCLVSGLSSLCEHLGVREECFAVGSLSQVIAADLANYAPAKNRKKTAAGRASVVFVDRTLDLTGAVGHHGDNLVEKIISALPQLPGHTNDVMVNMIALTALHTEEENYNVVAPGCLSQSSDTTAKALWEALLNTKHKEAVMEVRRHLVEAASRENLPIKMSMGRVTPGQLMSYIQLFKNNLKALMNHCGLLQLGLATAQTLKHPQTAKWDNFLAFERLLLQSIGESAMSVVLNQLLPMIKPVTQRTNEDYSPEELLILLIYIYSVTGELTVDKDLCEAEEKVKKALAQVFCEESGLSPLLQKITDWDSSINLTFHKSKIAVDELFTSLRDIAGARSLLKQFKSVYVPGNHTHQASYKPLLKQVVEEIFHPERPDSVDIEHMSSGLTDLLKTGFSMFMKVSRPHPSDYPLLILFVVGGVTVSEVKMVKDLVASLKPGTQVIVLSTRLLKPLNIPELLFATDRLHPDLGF

Compound in one assay: CC1Cc2ccccc2N1C(=O)C1CCCN(C1)C(=O)CCl (mixture of isomers) [TRIM25 ligand 11 (diastereomer mixture)]
Description: probe-labelled cysteine peptide fold change vs DMSO (competition) (log2 fold change); higher = less target engagement (more negative = stronger competition). Conditions: 10 µM; THP-1; incubation time: 4 h.
Turning to “SEC63_Q9UGP8_490_EQSICAAEEQPAEDGQGETNK (UniProt Q9UGP8)”, the “probe-labelled cysteine peptide fold change” value amounted to 0.0683.

Take “SART3_Q15020_341_ALVENCLVPDLWIR (UniProt Q15020)”: the “probe-labelled cysteine peptide fold change” value is 0.138.

For the target “SCYL1_Q96KG9_512_ILPVLCGLTVDPEK (UniProt Q96KG9)”, the “probe-labelled cysteine peptide fold change” value was found to be 0.0691.

“SCAPER_Q9BY12_336_DSLHSCDHPLAEK (UniProt Q9BY12)”: the “probe-labelled cysteine peptide fold change” value is -0.0351.

Take “SEC24C_P53992_881_DTLITQCAQILACYR (UniProt P53992)”: the “probe-labelled cysteine peptide fold change” value turned out to be 0.0228.

Turning to “SEC24D_O94855_388+390_YQCGFCNCVNDVPPFYFQHLDHIGR (UniProt O94855)”, the “probe-labelled cysteine peptide fold change” value was -0.156.

Turning to “SEPHS1_P49903_71_LGIGMDTCVIPLR (UniProt P49903)”, the “probe-labelled cysteine peptide fold change” value was -0.0328.

Regarding “SATB1_Q01826_78+91_GTMLPVFCVVEHYENAIEYDCKEEHAEFVLVR (UniProt Q01826)”, the “probe-labelled cysteine peptide fold change” value amounted to 0.0353.

As for “SCRN1_Q12765_54_VECTYISIDQVPR (UniProt Q12765)”, the “probe-labelled cysteine peptide fold change” value is 0.144.

As for “SCLY_Q96I15_316_AAELVTQNCEAYEAHMR (UniProt Q96I15)”, the “probe-labelled cysteine peptide fold change” value came to 0.148.

With “SEC14L1_Q92503_614_DYSMVESPLICK (UniProt Q92503)”, the “probe-labelled cysteine peptide fold change” value is -0.167.

In the case of “SDSL_Q96GA7_38_CENVQPSGSFK (UniProt Q96GA7)”, the “probe-labelled cysteine peptide fold change” value was -0.0549.

For “SCCPDH_Q8NBX0_238_WPISYCR (UniProt Q8NBX0)”, the “probe-labelled cysteine peptide fold change” value is -0.173.

With “SCMH1_Q96GD3_225_DIFPVGWCSLTGDNLQPPGTK (UniProt Q96GD3)”, the “probe-labelled cysteine peptide fold change” value is -0.183.

Take “SEC23B_Q15437_61_ERPDLPPVQYEPVLCSR (UniProt Q15437)”: the “probe-labelled cysteine peptide fold change” value stood at 0.0697.

As to “SELENOO_Q9BVL4_629_LLETPYHCEAGAATDAEATEADGADGR (UniProt Q9BVL4)”, the “probe-labelled cysteine peptide fold change” value was -0.074.

Turning to “SEC24B_O95487_562_CTLTNIPQTQALLNK (UniProt O95487)”, the “probe-labelled cysteine peptide fold change” value came out at 0.0185.

Take “SAMHD1_Q9Y3Z3_266_WTHEQGSVMMFEHLINSNGIKPVMEQYGLIPEEDICFIK (UniProt Q9Y3Z3)”: the “probe-labelled cysteine peptide fold change” value amounted to 0.0321.

Consider “SDHB_P21912_243_CHTIMNCTR (UniProt P21912)”, for which the “probe-labelled cysteine peptide fold change” value is -0.0481.

“SART1_O43290_645_GLAAALLLCQNK (UniProt O43290)”: the “probe-labelled cysteine peptide fold change” value is -0.145.

On to “SCRN3_Q0VDG4_143_YGQGGNCTEGR (UniProt Q0VDG4)”, for which the “probe-labelled cysteine peptide fold change” value was found to be 0.127.

As to “SEC24C_P53992_809+816_HDDRLNEESGALLQCALLYTSCAGQR (UniProt P53992)”, the “probe-labelled cysteine peptide fold change” value was 0.255.

For “SCAF11_Q99590_752_QMNENSVTHCSENNMPSSDLADEK (UniProt Q99590)”, the “probe-labelled cysteine peptide fold change” value was determined as 0.00365.

In the case of “SCRIB_Q14160_1612_PSPGAVGPEDVALCSSR (UniProt Q14160)”, the “probe-labelled cysteine peptide fold change” value was -0.0317.

Turning to “SCAF11_Q99590_566_VYQPVSCPLSDLSENVESVVNEEK (UniProt Q99590)”, the “probe-labelled cysteine peptide fold change” value is -0.0494.

In the case of “SAMHD1_Q9Y3Z3_80_ENEITGALLPCLDESR (UniProt Q9Y3Z3)”, the “probe-labelled cysteine peptide fold change” value is -0.0153.

For the target “SAR1B_Q9Y6B6_178_ELNARPLEVFMCSVLKR (UniProt Q9Y6B6)”, the “probe-labelled cysteine peptide fold change” value was -0.462.

“SCLT1_Q96NL6_408_LTEELSALQMECAEK (UniProt Q96NL6)”: the “probe-labelled cysteine peptide fold change” value is -0.198.

On to “SDHA_P31040_443_HVNGQDQIVPGLYACGEAACASVHGANR (UniProt P31040)”, for which the “probe-labelled cysteine peptide fold change” value is -0.00477.

As to “SEPSECS_Q9HD40_431_GFMSHTNNYPCAYLNAASAIGMK (UniProt Q9HD40)”, the “probe-labelled cysteine peptide fold change” value was 0.0777.

In the case of “SDF2L1_Q9HCN8_38_TGAELVTCGSVLK (UniProt Q9HCN8)”, the “probe-labelled cysteine peptide fold change” value was -0.04.

Turning to “SCRN3_Q0VDG4_406_IVNLFPQCTK (UniProt Q0VDG4)”, the “probe-labelled cysteine peptide fold change” value stood at 0.0937.

Turning to “SCFD2_Q8WU76_507_ALAQVFCEESGLSPLLQK (UniProt Q8WU76)”, the “probe-labelled cysteine peptide fold change” value came to 0.0961.

For the target “SAR1B_Q9Y6B6_102_NYLPAINGIVFLVDCADHER (UniProt Q9Y6B6)”, the “probe-labelled cysteine peptide fold change” value was 0.177.

In the case of “SEC24C_P53992_809_HDDRLNEESGALLQCALLYTSCAGQR (UniProt P53992)”, the “probe-labelled cysteine peptide fold change” value was found to be 0.144.

Still in this assay, the particulars now being: 50 µM; THP-1; incubation time: 4 h.
Turning to “SEC63_Q9UGP8_490_EQSICAAEEQPAEDGQGETNK (UniProt Q9UGP8)”, the “probe-labelled cysteine peptide fold change” value was -0.228.

On to “SART3_Q15020_341_ALVENCLVPDLWIR (UniProt Q15020)”, for which the “probe-labelled cysteine peptide fold change” value was -0.00676.

As to “SCYL1_Q96KG9_512_ILPVLCGLTVDPEK (UniProt Q96KG9)”, the “probe-labelled cysteine peptide fold change” value was 0.016.

For the target “SCAPER_Q9BY12_336_DSLHSCDHPLAEK (UniProt Q9BY12)”, the “probe-labelled cysteine peptide fold change” value was -0.308.

With “SEC24C_P53992_881_DTLITQCAQILACYR (UniProt P53992)”, the “probe-labelled cysteine peptide fold change” value was 0.163.

Consider “SEC24D_O94855_388+390_YQCGFCNCVNDVPPFYFQHLDHIGR (UniProt O94855)”, for which the “probe-labelled cysteine peptide fold change” value was -0.0449.

Take “SEPHS1_P49903_71_LGIGMDTCVIPLR (UniProt P49903)”: the “probe-labelled cysteine peptide fold change” value was -0.0933.

Turning to “SATB1_Q01826_78+91_GTMLPVFCVVEHYENAIEYDCKEEHAEFVLVR (UniProt Q01826)”, the “probe-labelled cysteine peptide fold change” value was found to be 0.0198.

Regarding “SCRN1_Q12765_54_VECTYISIDQVPR (UniProt Q12765)”, the “probe-labelled cysteine peptide fold change” value was 0.0568.

Consider “SCLY_Q96I15_316_AAELVTQNCEAYEAHMR (UniProt Q96I15)”, for which the “probe-labelled cysteine peptide fold change” value is 0.181.

“SEC14L1_Q92503_614_DYSMVESPLICK (UniProt Q92503)”: the “probe-labelled cysteine peptide fold change” value was -0.249.

For “SDSL_Q96GA7_38_CENVQPSGSFK (UniProt Q96GA7)”, the “probe-labelled cysteine peptide fold change” value was -0.15.

For “SCCPDH_Q8NBX0_238_WPISYCR (UniProt Q8NBX0)”, the “probe-labelled cysteine peptide fold change” value is -0.176.

With “SCMH1_Q96GD3_225_DIFPVGWCSLTGDNLQPPGTK (UniProt Q96GD3)”, the “probe-labelled cysteine peptide fold change” value was -0.00321.

“SEC23B_Q15437_61_ERPDLPPVQYEPVLCSR (UniProt Q15437)”: the “probe-labelled cysteine peptide fold change” value came out at 0.119.

Regarding “SELENOO_Q9BVL4_629_LLETPYHCEAGAATDAEATEADGADGR (UniProt Q9BVL4)”, the “probe-labelled cysteine peptide fold change” value was -0.08.

Take “SEC24B_O95487_562_CTLTNIPQTQALLNK (UniProt O95487)”: the “probe-labelled cysteine peptide fold change” value amounted to 0.218.

Regarding “SAMHD1_Q9Y3Z3_266_WTHEQGSVMMFEHLINSNGIKPVMEQYGLIPEEDICFIK (UniProt Q9Y3Z3)”, the “probe-labelled cysteine peptide fold change” value is -0.113.

As for “SDHB_P21912_243_CHTIMNCTR (UniProt P21912)”, the “probe-labelled cysteine peptide fold change” value is -0.057.

Consider “SART1_O43290_645_GLAAALLLCQNK (UniProt O43290)”, for which the “probe-labelled cysteine peptide fold change” value was -0.179.

“SCRN3_Q0VDG4_143_YGQGGNCTEGR (UniProt Q0VDG4)”: the “probe-labelled cysteine peptide fold change” value is 0.144.

With “SEC24C_P53992_809+816_HDDRLNEESGALLQCALLYTSCAGQR (UniProt P53992)”, the “probe-labelled cysteine peptide fold change” value is -0.0483.

Take “SCAF11_Q99590_752_QMNENSVTHCSENNMPSSDLADEK (UniProt Q99590)”: the “probe-labelled cysteine peptide fold change” value was -0.727.

As to “SCRIB_Q14160_1612_PSPGAVGPEDVALCSSR (UniProt Q14160)”, the “probe-labelled cysteine peptide fold change” value was -0.0855.

Take “SCAF11_Q99590_566_VYQPVSCPLSDLSENVESVVNEEK (UniProt Q99590)”: the “probe-labelled cysteine peptide fold change” value is -0.138.

For the target “SAMHD1_Q9Y3Z3_80_ENEITGALLPCLDESR (UniProt Q9Y3Z3)”, the “probe-labelled cysteine peptide fold change” value is 0.0561.

In the case of “SAR1B_Q9Y6B6_178_ELNARPLEVFMCSVLKR (UniProt Q9Y6B6)”, the “probe-labelled cysteine peptide fold change” value is -0.351.

Take “SCLT1_Q96NL6_408_LTEELSALQMECAEK (UniProt Q96NL6)”: the “probe-labelled cysteine peptide fold change” value is -0.0431.

Turning to “SDHA_P31040_443_HVNGQDQIVPGLYACGEAACASVHGANR (UniProt P31040)”, the “probe-labelled cysteine peptide fold change” value is -0.144.

Regarding “SEPSECS_Q9HD40_431_GFMSHTNNYPCAYLNAASAIGMK (UniProt Q9HD40)”, the “probe-labelled cysteine peptide fold change” value is -0.101.

As to “SDF2L1_Q9HCN8_38_TGAELVTCGSVLK (UniProt Q9HCN8)”, the “probe-labelled cysteine peptide fold change” value is -0.128.

For “SCRN3_Q0VDG4_406_IVNLFPQCTK (UniProt Q0VDG4)”, the “probe-labelled cysteine peptide fold change” value was -0.0148.

For the target “SCFD2_Q8WU76_507_ALAQVFCEESGLSPLLQK (UniProt Q8WU76)”, the “probe-labelled cysteine peptide fold change” value was 0.0426.

Take “SAR1B_Q9Y6B6_102_NYLPAINGIVFLVDCADHER (UniProt Q9Y6B6)”: the “probe-labelled cysteine peptide fold change” value was 0.151.

As for “SEC24C_P53992_809_HDDRLNEESGALLQCALLYTSCAGQR (UniProt P53992)”, the “probe-labelled cysteine peptide fold change” value turned out to be 0.08.

The values above are taken from the supplement of paper PMC12067093, “Discovery and optimisation of a covalent ligand for TRIM25 and its application to targeted protein ubiquitination” (Chemical Science, 2025).
